Measurements reported in PubChem BioAssay AID1053208 (Peter MacCallum Cancer Centre, 2014).
Aim: 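Find knock-downs that sensitise mouse osteosarcoma cells to doxorubicin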 (primary screen). Cells: mouse osteosarcoma cells, early-passage culture from an engineered mouse model of fibroblastic bone tumour. Reagent: siRNA pool against mouse genes, 40 nM. Timing: about 120 h (48 h before drug, then 72 h with drug). Treatment: doxorubicin 100 nM for 72 h, roughly 30-40% inhibitory dose. Measured: 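Luminescent ATP signal taken as viability with or without 100 nM doxorubicin for 72 h; mean of two wells set against non-targeting siRNA and turned into robust z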. Reading the numbers: viability z-score with doxorubicin and doxorubicin viability vs non-targeting: higher = more viable cells under doxorubicin; viability z-score without drug: higher = more viable cells with knock-down alone; z-score of drug to no-drug ratio: higher = less drug sensitisation by knock-down. Active means: 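Called active if knock-down leaves viability unchanged without drug (z within -2 to 2) but lowers it with doxorubicin (z at or under -2)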.
This is an unselected part of about 17,000 deposited reagents. In the full data, 788 (4.7%) are marked active. 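Calls rest on z-score classes alone; an extra cut-off of viability at most 70% of control was not applied to them.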 Entries without a mark were called inactive.

target	combined z-score class	viability z-score with doxorubicin	viability z-score without drug	z-score of drug to no-drug ratio	doxorubicin viability vs non-targeting
Ppm1d	no change with or without drug	1.12	-0.51	1.69	1.04
Pms1	no change with or without drug	1.24	1.18	0.56	1.05
Glo1	no change with or without drug	-0.9	-0.34	-0.67	0.86
Vmn1r188	high cell count with and without drug	4.27	3.71	1.69	1.32
Zbtb7c	no change with or without drug	-0.11	-0.17	0.11	0.93
Il27ra	no change with or without drug	-0.22	0.17	-0.22	0.92
Sh2d1b1	no change with or without drug	-0.45	0.67	-0.79	0.9
Sult1b1	no change with or without drug	1.35	-0.34	1.8	1.06
Cab39l	no change with or without drug	-0.22	1.01	-0.79	0.92
Apol10b	low cell count with doxorubicin only (active)	-2.59	-1.18	-1.91	0.71
Spink1	no change with or without drug	0.11	-0.84	0.9	0.95
Celsr3	no change with or without drug	-0.45	-0.17	-0.22	0.9
Oma1	no change with or without drug	-1.69	-0.84	-1.12	0.79
Nipa2	no change with or without drug	0.11	-0.17	0.34	0.95
Hook1	no change with or without drug	0.79	0.51	0.56	1.01
Ube2v2	no change with or without drug	-0.79	0.51	-1.01	0.87
Dapk2	no change with or without drug	1.12	0.34	1.01	1.04
Cstf2	no change with or without drug	0.45	0.17	0.45	0.98
Or1j11	no change with or without drug	-0.45	0.51	-0.67	0.9
Ace2	no change with or without drug	1.24	-0.51	1.8	1.05
Hepacam2	no change with or without drug	1.01	1.18	0.34	1.03
Abca5	no change with or without drug	1.12	0.67	0.79	1.04
Or13a25	no change with or without drug	-0.9	-1.69	0.34	0.86
Lncpint	no change with or without drug	0.9	0.84	0.45	1.02
Insig1	high cell count with doxorubicin only	2.36	1.52	1.46	1.15
Cul3	no change with or without drug	-0.34	-0.17	-0.11	0.91
Atp2c1	no change with or without drug	-0.67	-0.17	-0.45	0.88
Igfals	no change with or without drug	0.45	0.51	0.22	0.98
Mef2d	no change with or without drug	-0.45	1.69	-1.35	0.9
Laptm4b	no change with or without drug	0.34	1.85	-0.67	0.97
A330041J22Rik	no change with or without drug	0.56	-1.69	2.02	0.99
Kctd11	low cell count with doxorubicin only (active)	-2.02	0.34	-2.25	0.76
U2af1	low cell count with and without drug	-4.27	-2.19	-3.37	0.56
Msh5	no change with or without drug	0.79	-1.52	2.14	1.01
Smad3	no change with or without drug	0	-0.51	0.45	0.94
Cacna1d	no change with or without drug	-0.9	0.84	-1.35	0.86
Abca8b	no change with or without drug	-0.22	-0.51	0.22	0.92
Klre1	no change with or without drug	-1.57	-1.52	-0.56	0.8
Paip2	no change with or without drug	-1.01	-0.51	-0.67	0.85
Cdcp3	high cell count without drug only	0	2.02	-1.12	0.94
R3hdm1	no change with or without drug	0	-0.51	0.45	0.94
Zfp935	no change with or without drug	1.35	1.18	0.67	1.06
Vmn1r-ps8	no change with or without drug	0.67	-0.51	1.24	1
Wnt7b	no change with or without drug	-1.24	-0.17	-1.12	0.83
Ctf2	no change with or without drug	0.34	0.34	0.22	0.97
Zfp30	no change with or without drug	0.56	0.34	0.45	0.99
Foxp2	no change with or without drug	-0.11	-0.51	0.34	0.93
Bhmt2	no change with or without drug	0	-0.17	0.22	0.94
Or8k23	no change with or without drug	-1.57	-1.85	-0.34	0.8
Clk2	no change with or without drug	0.45	-0.17	0.67	0.98

Active calls, of those listed so far:
target	combined z-score class	viability z-score with doxorubicin	viability z-score without drug	z-score of drug to no-drug ratio	doxorubicin viability vs non-targeting
Apol10b	low cell count with doxorubicin only (active)	-2.59	-1.18	-1.91	0.71
Kctd11	low cell count with doxorubicin only (active)	-2.02	0.34	-2.25	0.76
